Measurements as given in US20250388687A1.
No constants are given. Whether binding was seen depends on the method and setting. Some binding calls cover weakened binding; strength is not graded here.

The chains behind the UniProt entries cited, without tags or fusion partners. Residues count along the entry.
UniProt P32927, residues 17-443: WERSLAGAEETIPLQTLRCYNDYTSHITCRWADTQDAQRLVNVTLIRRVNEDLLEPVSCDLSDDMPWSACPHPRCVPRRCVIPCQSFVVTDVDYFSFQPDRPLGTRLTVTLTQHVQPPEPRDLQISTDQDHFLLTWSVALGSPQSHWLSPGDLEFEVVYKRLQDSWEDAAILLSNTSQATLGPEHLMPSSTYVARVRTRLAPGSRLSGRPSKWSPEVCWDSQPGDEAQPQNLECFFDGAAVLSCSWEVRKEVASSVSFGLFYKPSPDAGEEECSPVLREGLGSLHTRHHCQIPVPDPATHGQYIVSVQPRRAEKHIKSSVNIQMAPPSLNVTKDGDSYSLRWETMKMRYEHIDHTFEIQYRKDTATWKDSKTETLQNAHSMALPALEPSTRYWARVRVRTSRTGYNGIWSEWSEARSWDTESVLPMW

Each binder was assayed against hCD131-Fc (IME021) (human) (UniProt P32927) (assay: B cells sorted with labelled hEPOR-Fc and hCD131-Fc, then sequenced).

| Binder | binding |
| --- | --- |
| EPOR/CD131 binder, HC SEQ ID NO 1650 / LC SEQ ID NO 1786 (antibody, V domains shown) VH: EVQLVESGGGLVQPGGSLRLSCAASGFTFSSYDMHWVRQATGKGLEWVSAIGTAGDTYYPGSVKGRFTISRENAKNSLYLQMNSLRAGDTAVYYCARGDHSYGGLDYWGQGTLVTVSS VL: SYELTQPPSVSVSLGQMARITCSGEALPKKYAYWYQQKPGQFPVLVIYKDSERPSGIPERFSGSSSGTIVTLTISGVQAEDEADYYCLSADSSGTYRVFGGGTKLTVL | binds |
| EPOR/CD131 binder, HC SEQ ID NO 1651 / LC SEQ ID NO 1787 (antibody, V domains shown) VH: QVQLVQSGAEVEKPGASVKVSCKASGYTFTSYDIYWVRQATGQGLEWMGWMIPNSGNTGYAQRFEDRVTMTRSTSMNTAYMELNSLRSEDTAVYYCARGDWAWSFDLWGRGTLVTVSS VL: QSALTQPASVSGSPGQSITISCTGTSSDVGGYNYVSWYQQHPGKAPKLMIYEVSHRPSGVSNRFSGSKSGNTASLTISGLQAEDESDYYCSSYTSSSSLVFGGGTKLTVL | binds |
| EPOR/CD131 binder, HC SEQ ID NO 1652 / LC SEQ ID NO 1788 (antibody, V domains shown) VH: QVQLVQSGAEVKKPGASVKVSCKASGYTFTSYYMHWVRQAPGQGLEWMGIINPSGGSTSYAQKFQGRVTMTRDTSTSTVYMELSSLRSEDTAVYYCARGLRRDWFDPWGQGTLVTVSS VL: QSALTQPASVSGSPGQSITISCTGTSSDVGGYNYVSWYQQHPGKAPKLMIYEVSNRPSGVSNRFSGSKSGNTASLTISGLQAEDEADYYCSSYTSSSTWVFGGGTKLTVL | binds |
| EPOR/CD131 binder, HC SEQ ID NO 1654 / LC SEQ ID NO 1790 (antibody, V domains shown) VH: QVQLVESGGGVVQPGRSLRLSCAASGFTFSNYGMHWVRQAPGKGLDWVAVIWYDGNNEYYADSVKDRFTISRDNSQNTLYLQMNSLRAEDRAVYYCVRGGVGDGFDMWGQGTMVTVSS VL: QSALTQPASVSGSPGQSITISCTGTSSDVGGYNYVSWYQQHPGKVPKLMIYEVSNRPSGVSNRFSGSKSGNTASLTISGLQAEDEADYYCISYTNTNTRVFGGGTKLTVL | binds |
| EPOR/CD131 binder, HC SEQ ID NO 1657 / LC SEQ ID NO 1793 (antibody, V domains shown) VH: EVQLVESGGGLVKPGGSLRLSCAASGFTFSSYSMNWVRQAPGKGLEWVSSISSSSSYIYYADSVKGRFTISRDNAKNSLYLQMNSLRAEDTAVYYCARDSAYYTFDYWGQGTLVTVSS VL: QSALTQPPSASGSPGQSVTISCTGTSSDVGGYNYVSWYQQHPGKAPKLMIYEVSKRPSGVPDRFSGSKSGNTASLTVSGLQAEDEADYYCSSYAGSNNFWVFGGGTKLTVL | binds |
| EPOR/CD131 binder, HC SEQ ID NO 1660 / LC SEQ ID NO 1796 (antibody, V domains shown) VH: EVQLVESGGGVVRPGGSLRLSCAASGFPFDDFGLNWVRQAPGKGLEWVSGINWNGGTTTYADSVKGRFTISRDNAKKSLYLQMSSLRVEDTALFYCVRDEIWNYYFDYWGQGTLVTVSS VL: SYELTQPSSVSVSPGQTARITCSGDVLAKKYARWFQQKPGQAPVLVIYKDSERPSGIPERFSGSSSGTTVTLTISGAQVEDEADYYCYSAADNNRVFGGGTKLTVL | binds |
| EPOR/CD131 binder, HC SEQ ID NO 1662 / LC SEQ ID NO 1798 (antibody, V domains shown) VH: EVQLVESGGGLVQPGGSLRLSCAASGFTFSSYWMHWVRQAPGKGLVWVSRINSDGSSTSYADSVKGRFTISRDNAKNTLYLQMNSLRAEDTAVYYCARVGWGGHAFDIWGQGTMVTVSS VL: SSELTQDPAVSVALGQTVRITCQGDSLRSYYASWYQQKPGQAPVLVIYGKNNRPSGIPDRFSGSSSGNTASLTITGAQAEDEADYYCNSRDSSGNHVVFGGGTKLTVL | binds |
| EPOR/CD131 binder, HC SEQ ID NO 1663 / LC SEQ ID NO 1799 (antibody, V domains shown) VH: EVQLVESGGGLVKPGGSLRLSCAASGFTFSTYSMNWVRQAPGKGLEWVSSISSSSTYIYYADSVKGRFTISRDNAKNSLYLQMNSLRAEDTAVYYCARGYNWNYVGDYWGQGTLVTVSS VL: QSALTQPASVSGSPGQSITISCTGTSSDVGGYNYVSWYQQHPGKAPKLMIYEVSNRPSGVSNRFSGSKSGNTASLTISGLQAEDEADYYCSSYTSSSTLVFGGGTKLTVL | binds |
| EPOR/CD131 binder, HC SEQ ID NO 1667 / LC SEQ ID NO 1803 (antibody, V domains shown) VH: EVQLVESGGGLVQPGGSLRLSCAASGFTFNRYNMNWVRQAPGKGLEWVSYISSSSDTIYYADSVKGRFTISRDNAKNSLYLQMNSLRDEDTAMYYCARECYSSSWAFDYWGQGTLVTVSS VL: SSELTQDPAVSVALGQTVRITCQGDSLRSYYASWYQQKPGQAPVLVIYGKNNRPSGILDRFSGSSSGNTASLTITGAQAEDEGDYYCNSRDSSGWVFGGGTKLTVL | binds |
| EPOR/CD131 binder, HC SEQ ID NO 1668 / LC SEQ ID NO 1804 (antibody, V domains shown) VH: QVQLQESGPGLVKPSGTLSLTCAISGGSISSSNWWSWVRQPPGKGLEWIGEIYHSGSTNFNPSLKSRVTISVDKSKNQFSLHLSSVTAADTAVYYCARDVGVDGRGFDYWGQGIVVIVSS VL: SYELTQPPSVSVSPGQTANITCSGDKLENKYTCWYQQKPGQSPLVVIYQDNKRPSGIPERFSGSNSGNTATLTISGTQAMDEADYYCQAWDSTTAWVFGGGTKLTVL | binds |
| EPOR/CD131 binder, HC SEQ ID NO 1669 / LC SEQ ID NO 1805 (antibody, V domains shown) VH: EVQLVESGGGLVQPGGSLRLSCGVSGFTFSIYWMSWVRQAPGKGLEWVANINLDGSEKYHVDSVKGRFTISRDNAKNSLFLQMTSLRAEDTAVYYCARDILWSGGYLDVWGKGTTVTVSS VL: SSELTQDPAVSVALGQTVRITCQGDNIRNYYASWYQQKPGQAPLLVISGKNNRPSGIPDRFSGSSSGNTASLTITGAQAEDEAYYYCYSRDSSGSLWIFGGGTKLTVL | binds |
| EPOR/CD131 binder, HC SEQ ID NO 1670 / LC SEQ ID NO 1806 (antibody, V domains shown) VH: EVQLVESGGGLVQPGGSLRLSCAASGFTFSGYWMTWVRQAPGKGLEWVANIKHDGSEKYYVDSVKGRFTISRDNAQNSLYLQMNSLRAEDTAVYYCARKQLWLNWYFDFWGRGILVTVSS VL: SSELTQDPAVSVALGQTVRITCQGDSLRRYYASWYQQKPGQAPVLVIYGKDNRPSGIPDRFSGSSSGNTASLTITGTQAEDEADYYCNSRDSSGNHLVFGGGTKLTVL | binds |
| EPOR/CD131 binder, HC SEQ ID NO 1671 / LC SEQ ID NO 1807 (antibody, V domains shown) VH: QVQLVQSGAEVKKPGASVKVSCKASGYTFTTYGISWVRQAPGQGLEWMGWISAFNGNTNYAQNLQGRVTMTTDTSTSTAYMELRSLRSDDTAVYYCARENNWNYGWFDPWGQGTLVTVSS VL: SSELTQDPAVSVALGQTVRITCQGDSLRSYYASWYQQKPGQAPVLVIYGKNNRPSGIPDRFSGSSSGNTASLTITGAQAEDEADYYCNSRDSSGNHYVFGTGTKVTVL | binds |
| EPOR/CD131 binder, HC SEQ ID NO 1677 / LC SEQ ID NO 1813 (antibody, V domains shown) VH: EVQLVESGGGLVKPGGSLRLSCAASGFTFSSYSMNWVRQAPGKGLEWVSSISSSSSYIYYADSVKGRFTISRDNAKNSLYLQMNSLRAEDTAVYYCAREGNWGPYYFDYWGQGTLVTVSS VL: QSALTQPASVSGSPGQSITISCTGTSSDVGGYNYVSWYQQHPGKAPKLMIYDVSKRPSGVSNRFSGSKSGNTASLTISGLQAEDEADYYCCSYAGSSTVVFGGGTKLTVL | binds |
| EPOR/CD131 binder, HC SEQ ID NO 1683 / LC SEQ ID NO 1819 (antibody, V domains shown) VH: EVHLVESGGGLVQPGGSLRLSCAASGFTFSGYWMSWVRQAPGKGLEWVANIKQDGSDKYYVDSVKGRFTISRDNAINSLFLQLTSLRAEDTAVYYCAREIDWNYGFHFDYWGQGTLITVSS VL: SYELTQPPSVSVSPGQTARITCSGDALPQKYAFWYQQKSGQAPVLVIYEDSERPSGIPERFSGSTSGTMATLTISGAQVEDEADYYCFSTDSSGNKVFGGGTKLTVL | binds |
| EPOR/CD131 binder, HC SEQ ID NO 1684 / LC SEQ ID NO 1820 (antibody, V domains shown) VH: QVQLVQSGAEVKKPGASVKVSCKASGYTFTSYDINWVRQATGQGLEWMGWMNPNSGNTGYAQKFQGRVTMTRNTSISTAYMELSSLRSEDTAVYYCARGYYDFWSGPFDYWGQGTLVTVSS VL: SYELTQPPSVSVSPGQTARITCSGDALPKKYAYWYQQKSGQAPVLVIYEDSKRPSGIPERFSGSSSGTMATLTISGAQVEDEADYYCYSTDSSGNRVFGGGTKLTVL | binds |
